# Library screening results

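Whole-cell assay for inhibitors of Mycobacterium tuberculosis growth, labelled Cornell in the record; the read-out is not stated. The concentration is filed as 10 mM, unlikely as a test dose, so the dose is not known. The record gives no direction; compounds strong in two other growth screens of this library score well above the rest, so higher reads as stronger inhibition. About 53,000 compounds were tested under these conditions; 1.7% (about 900) showed 50% or more at least once.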

Each number is a percent effect as filed. How 0% and 100% were set is not recorded. Most values in the screen are low, and negative values occur. Compounds were drawn at random from those tested, without regard to their results.

- CCOc1ccc(S(=O)(=O)C(C)C(=O)Nc2cc(C)no2)cc1 (stereo not drawn) : 23.29%
- CC(=O)N1CCCN(CCn2nc3ccccn3c2=O)CC1 : -16.95%
- Cc1cc(CNc2ccc(C(F)(F)F)cc2)no1 : 24.28%
- [H][C@@]12COC[C@]1(COc1ccc(C#N)cn1)CN(c1cc(OC)ncn1)C2 : -0.9028%
- CN(C)C(C(=O)N1CCC(C#N)CC1)c1ccccc1F (stereo not drawn) : -44.46%
- O=C(c1ccco1)N1CCn2cc(CN3CCCC3)nc2C1 : 3.527%
- COc1ccc(NC(=O)C2CC(=O)n3cnnc3S2)cc1 (stereo not drawn) : 106.3%
- O=C(O)C(F)(F)F.[H][C@@]12CN(Cc3ccccn3)C[C@]1([H])CN(C(=O)c1cccc(F)c1)C2 : 14.12%
- CC(C(=O)N1CCOCC1)N1CCc2cncnc2C1 (stereo not drawn) : 10.6%
- CCN(CC)CCCNC(=O)Nc1c(C)cccc1C(C)C : 6.289%
- CCOC(=O)C1CCN(C(=O)CN2CCCC2c2ccsc2)CC1 (stereo not drawn) : 0.5438%
- CCN1CC(COC(=O)c2cccc(Br)c2)CC1=O (stereo not drawn) : 24.98%
- Cc1noc(NCc2ccc(F)cc2)n1 : -8.844%
- CSc1ccsc1C(=O)NS(=O)(=O)c1cnn(C)c1 : -25.31%
- COCc1ncc(-c2nccn2CCn2cnnc2)cn1 : -49.77%
- O=C(O)C(F)(F)F.[H][C@@]12CCN(Cc3cccs3)C[C@]1(C(=O)N1CCCO1)CCO2 : -12.47%
- Cc1ncc2c(n1)CN(Cc1nnc(-c3occc3C)o1)CC2 : 3.706%
- Nc1nc(N2CCCCCC2)ncc1C(=O)NCc1ccc(F)c(Cl)c1 : 12.97%
- COc1cccc(-n2nc(C(C)=O)c(C(C)=O)c2C)c1 : 16.9%
- CCOc1ccc(C(=O)Nc2ccn(CC)n2)cc1 : 7.471%
- O=C(NC1CCc2ccccc2C1)N1CCN(C(=O)C2CCC2)CC1 (stereo not drawn) : 38.55%
- Cc1ccc(S(=O)(=O)N2CCN(C)c3ccncc32)cc1F : 20.56%
- CCC(C)(C)NC(=O)c1nnn(-c2cccc3c2CCN(C)C3)c1C : -0.0817%
- Cc1ccsc1C(=O)NCC1COCc2c(C)nnn2C1 (stereo not drawn) : 2.304%
- Cc1n[nH]c(C2CN(Cc3ncc(C(C)C)o3)CCO2)n1 (stereo not drawn) : 22.89%
- CSc1ccc(CNc2n[nH]c(C)n2)cc1 : -64.16%
- Cc1cnc(CN(C)C2CCN(Cc3nc4c(F)cccc4[nH]3)C2)o1 (stereo not drawn) : 2.859%
- Cc1nc2c(c(=O)[nH]1)CCN(Cc1ccc3c(c1)CCCN3C)C2 : 27.23%
- COCCn1ccnc1CN(Cc1ccccn1)Cc1sccc1C : -0.9423%
- NC(=O)CN(C(=O)C1Cc2cc(Cl)ccc2O1)C1CCCC1 (stereo not drawn) : -10.26%
- COCC(=O)N1CCC2(CC(=O)N(c3cccc(F)c3)C2)C1 (stereo not drawn) : -7.108%
- CC(=O)Nc1ccc(CCC2(NC(=O)C3CC3)CCCCC2)cn1 : 17.49%
- Cc1nc2c(c(N3CCC(CN4CCCC4=O)CC3)n1)CCNCC2 : 17.05%
- Cc1cc(=O)c(C(=O)N2CCN(C)c3ccccc3C2)c[nH]1 : 17.44%
- O=C(NCCn1cccc1)c1c(O)cc(F)cc1F : 22.27%
- Cc1ccccc1-c1noc(-c2ccc(NCC3COCCO3)nc2)n1 (stereo not drawn) : -12.42%
- COc1cccc(-c2nc(CC(=O)NC3(C)CCS(=O)(=O)C3)cs2)c1 (stereo not drawn) : 5.389%
- CC(NC(=O)C1=NN(C)C(=O)CC1)c1ccc(Cl)cc1 (stereo not drawn) : 7.788%
- CNC(=O)CS(=O)(=O)C1CCN(S(=O)(=O)C2CC2)CC1 : 10.03%
- CN(Cc1ccccc1-n1cccn1)c1nc(N)nc2c1CCNCC2 : 1.449%
- COCCN1CCC(CNC(=O)c2cc(C)cc(C)c2)C1 (stereo not drawn) : 7.873%
- Cc1nc(O)cc(CCNC(=O)CN2CCCCCC2)n1 : 2.458%
- CCCS(=O)(=O)N1Cc2nccn2CC(Cn2cccn2)C1 (stereo not drawn) : 11.68%
- O=C(Cc1ccccn1)N1CCc2ncnc(N3CCCC3)c2CC1.O=C(O)C(F)(F)F : 14.89%
- [H][C@]12CC[C@]([H])(CN(Cc3nc4ccccc4n3C)C1)N(CCOC)C2 : 24.29%
- CN1CCC(CNC(=O)c2cccc(NC(N)=O)c2)c2ccccc21 (stereo not drawn) : 7.837%

Repeated from the top, 3 entries:

SMILES,percent effect
CCOc1ccc(S(=O)(=O)C(C)C(=O)Nc2cc(C)no2)cc1 (stereo not drawn),23.29%
CC(=O)N1CCCN(CCn2nc3ccccn3c2=O)CC1,-16.95%
Cc1cc(CNc2ccc(C(F)(F)F)cc2)no1,24.28%

The values are deposited in ChEMBL (CHEMBL3988442, “University of Dundee, Small-Polar-MMV Screening Library” (2021)).